# Assay results taken from the supplement of paper PMC8728848.
# The other results are listed elsewhere or left out.
# B1: AT1G77380(17) (Arabidopsis thaliana), Q39134 (protein)
# chain: MVQNHQTVLAVDMPQTGGSKYLDDDGKNKRTGSVWTASAHIITAVIGSGVLSLAWATAQLGWLAGPVVMLLFSAVTYFTSSLLAACYRSGDPISGKRNYTYMDAVRSNLGGVKVTLCGIVQYLNIFGVAIGYTIASAISMMAIKRSNCFHKSGGKDPCHMNSNPYMIAFGLVQILFSQIPDFDQLWWLSILAAVMSFTYSSAGLALGIAQVVVNGKVKGSLTGISIGAVTETQKIWRTFQALGDIAFAYSYSIILIEIQDTVKSPPSEEKTMKKATLVSVSVTTMFYMLCGCMGYAAFGDLSPGNLLTGFGFYNPYWLLDIANAAIVIHLIGAYQVYCQPLFAFIEKQASIQFPDSEFIAKDIKIPIPGFKPLRLNVFRLIWRTVFVIITTVISMLLPFFNDVVGLLGALGFWPLTVYFPVEMYIAQKKIPRWSTRWVCLQVFSLGCLVVSIAAAAGSIAGVLLDLKSYKPFRSEY
# Assays:
# Assay in all cases: glycan array binding signal (z-score within array); higher = stronger binding
# Conditions in all cases: glycan notation: IUPAC condensed, linker removed
# Gal3S4S(b1-4)GlcNAc = target: Gal3S4S(b1-4)GlcNAc
# In short: (§1)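 The binding signal is a Z-score computed within each array and averaged over linkers. Arrays of the same protein sequence at different concentrations or buffers were also averaged together. Data originate from 3228 arrays in the Consortium for Functional Glycomics database, kept only where the protein sequence was available.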
# Gal3S6S(b1-4)GlcNAc = target: Gal3S6S(b1-4)GlcNAc
# In short: as §1
# Gal3S6S(b1-4)GlcNAc6S = target: Gal3S6S(b1-4)GlcNAc6S
# In short: as §1
# Gal4S(b1-4)GlcNAc = target: Gal4S(b1-4)GlcNAc
# In short: as §1
# Gal4S6S(b1-4)GlcNAc = target: Gal4S6S(b1-4)GlcNAc
# In short: as §1
# Gal6P(b1-4)GlcNAc = target: Gal6P(b1-4)GlcNAc
# In short: as §1
# Gal6S(b1-3)GlcNAc = target: Gal6S(b1-3)GlcNAc
# In short: as §1
# Gal6S(b1-3)GlcNAc6S = target: Gal6S(b1-3)GlcNAc6S
# In short: as §1
# Gal6S(b1-4)Glc = target: Gal6S(b1-4)Glc
# In short: as §1
# Gal6S(b1-4)Glc6S = target: Gal6S(b1-4)Glc6S
# In short: as §1
# Gal6S(b1-4)GlcNAc = target: Gal6S(b1-4)GlcNAc
# In short: as §1
# Gal6S(b1-4)GlcNAc6S = target: Gal6S(b1-4)GlcNAc6S
# In short: as §1
# GalNAc(a1-3)Gal = target: GalNAc(a1-3)Gal
# In short: as §1
# GalNAc(a1-3)GalNAc = target: GalNAc(a1-3)GalNAc
# In short: as §1
# [1] = target: GalNAc(a1-3)GalNAc(b1-3)Gal(a1-4)Gal(b1-4)Glc
# In short: as §1
# [2] = target: GalNAc(a1-3)GalNAc(b1-3)Gal(a1-4)Gal(b1-4)GlcNAc
# In short: as §1
# GalNAc(b1-3)Gal = target: GalNAc(b1-3)Gal
# In short: as §1
# [3] = target: GalNAc(b1-3)Gal(a1-4)Gal(b1-4)GlcNAc
# In short: as §1
# [4] = target: GalNAc(b1-3)Gal(a1-4)Gal(b1-4)GlcNAc(b1-3)Gal(b1-4)Glc
# In short: as §1
# [5] = target: GalNAc(b1-3)Gal(a1-6)Gal(b1-4)Glc
# In short: as §1
# GalNAc(b1-3)GalNAc = target: GalNAc(b1-3)GalNAc
# In short: as §1
# GalNAc(b1-3)GlcNAc = target: GalNAc(b1-3)GlcNAc
# In short: as §1
# GalNAc(b1-4)Gal(b1-4)Glc = target: GalNAc(b1-4)Gal(b1-4)Glc
# In short: as §1
# GalNAc(b1-4)GlcNAc = target: GalNAc(b1-4)GlcNAc
# In short: as §1
# [6] = target: GalNAc(b1-4)GlcNAc(b1-2)Man
# In short: as §1
# [7] = target: GalNAc(b1-4)GlcNAc(b1-2)Man(a1-3)[GalNAc(b1-4)GlcNAc(b1-2)Man(a1-6)]Man(b1-4)GlcNAc(b1-4)GlcNAc
# In short: as §1
# [8] = target: GalNAc(b1-4)GlcNAc(b1-3)GalNAc(b1-4)GlcNAc
# In short: as §1
# GalNAc(b1-4)GlcNAc6S = target: GalNAc(b1-4)GlcNAc6S
# In short: as §1
# GalNAc(b1-6)GalNAc = target: GalNAc(b1-6)GalNAc
# In short: as §1
# GalNAc3S(b1-4)GlcNAc = target: GalNAc3S(b1-4)GlcNAc
# In short: as §1
# GalNAc3S(b1-4)GlcNAc3S = target: GalNAc3S(b1-4)GlcNAc3S
# In short: as §1
# [9] = target: GalNAc3S(b1-4)[Fuc(a1-3)]GlcNAc
# In short: as §1
# GalNAc4S6S(b1-4)GlcNAc = target: GalNAc4S6S(b1-4)GlcNAc
# In short: as §1
# GalNAc6S(b1-4)GlcNAc = target: GalNAc6S(b1-4)GlcNAc
# In short: as §1
# Glc(a1-4)Glc = target: Glc(a1-4)Glc
# In short: as §1
# [10] = target: Glc(a1-4)Glc(a1-4)Glc(a1-4)Glc
# In short: as §1
# Glc(a1-6)Glc(a1-6)Glc = target: Glc(a1-6)Glc(a1-6)Glc
# In short: as §1
# [11] = target: Glc(a1-6)Glc(a1-6)Glc(a1-6)Glc
# In short: as §1
binder,measurement,setting,value
B1,glycan array binding signal (z-score),Gal3S4S(b1-4)GlcNAc,-0.634
same,glycan array binding signal (z-score),Gal3S6S(b1-4)GlcNAc,0.114
same,glycan array binding signal (z-score),Gal3S6S(b1-4)GlcNAc6S,1.11
same,glycan array binding signal (z-score),Gal4S(b1-4)GlcNAc,0.045
same,glycan array binding signal (z-score),Gal4S6S(b1-4)GlcNAc,-0.468
same,glycan array binding signal (z-score),Gal6P(b1-4)GlcNAc,-0.442
same,glycan array binding signal (z-score),Gal6S(b1-3)GlcNAc,-0.519
same,glycan array binding signal (z-score),Gal6S(b1-3)GlcNAc6S,-0.57
same,glycan array binding signal (z-score),Gal6S(b1-4)Glc,0.042
same,glycan array binding signal (z-score),Gal6S(b1-4)Glc6S,-0.34
same,glycan array binding signal (z-score),Gal6S(b1-4)GlcNAc,-0.004
same,glycan array binding signal (z-score),Gal6S(b1-4)GlcNAc6S,-0.166
same,glycan array binding signal (z-score),GalNAc(a1-3)Gal,-0.605
same,glycan array binding signal (z-score),GalNAc(a1-3)GalNAc,0.267
same,glycan array binding signal (z-score),[1],-0.209
same,glycan array binding signal (z-score),[2],2.28
same,glycan array binding signal (z-score),GalNAc(b1-3)Gal,2.3
same,glycan array binding signal (z-score),[3],0.17
same,glycan array binding signal (z-score),[4],0.373
same,glycan array binding signal (z-score),[5],-0.708
same,glycan array binding signal (z-score),GalNAc(b1-3)GalNAc,-0.83
same,glycan array binding signal (z-score),GalNAc(b1-3)GlcNAc,-0.169
same,glycan array binding signal (z-score),GalNAc(b1-4)Gal(b1-4)Glc,2.04
same,glycan array binding signal (z-score),GalNAc(b1-4)GlcNAc,2.31
same,glycan array binding signal (z-score),[6],-0.825
same,glycan array binding signal (z-score),[7],7.58
same,glycan array binding signal (z-score),[8],-0.789
same,glycan array binding signal (z-score),GalNAc(b1-4)GlcNAc6S,-0.676
same,glycan array binding signal (z-score),GalNAc(b1-6)GalNAc,0.561
same,glycan array binding signal (z-score),GalNAc3S(b1-4)GlcNAc,-0.109
same,glycan array binding signal (z-score),GalNAc3S(b1-4)GlcNAc3S,-0.031
same,glycan array binding signal (z-score),[9],-0.741
same,glycan array binding signal (z-score),GalNAc4S6S(b1-4)GlcNAc,-0.249
same,glycan array binding signal (z-score),GalNAc6S(b1-4)GlcNAc,-0.268
same,glycan array binding signal (z-score),Glc(a1-4)Glc,-0.508
same,glycan array binding signal (z-score),[10],-0.725
same,glycan array binding signal (z-score),Glc(a1-6)Glc(a1-6)Glc,-0.169
same,glycan array binding signal (z-score),[11],-0.562

# An excerpt of these results, bar-delimited:
binder | measurement | setting | value
B1 | glycan array binding signal (z-score) | Gal6S(b1-3)GlcNAc | -0.519
same | glycan array binding signal (z-score) | Gal6S(b1-3)GlcNAc6S | -0.57
same | glycan array binding signal (z-score) | Gal6S(b1-4)Glc | 0.042
